Source: patent publication US5633144A, “Assay pad and method for determination of the presence of total coliforms” (priority 1994, dated 1997)
Where two headings read alike, the source gives them in different places. For at least one compound, name, drawing or mass did not settle the structure.

Test system: beta-galactosidase of E. coli EW1b
Type: biochemical
Conditions: for Color intensity, distilled water: freeze-dried in distilled water; for Color intensity, trehalose medium: freeze-dried in trehalose medium (22.4% w/v)
Further: key: +++++: maximum color intensity; -: complete enzyme inactivation.

O=S(=O)([O-])[O-].[Cd+2] [Cadmium (CdSO4), Cadmium]
Color intensity, distilled water (0.3 ppm): ++++++ | Color intensity, trehalose medium (0.3 ppm): ++ | Color intensity, distilled water (0.6 ppm): ++++ | Color intensity, trehalose medium (0.6 ppm): + | Color intensity, distilled water (1.0 ppm): +++ | Color intensity, distilled water (1.5 ppm): +
